According to the supplement of paper PMC10849652:
Some of the results follow.

Amino acid sequences for entries named in this document (tags omitted). A change or cut given only in a name is not applied to a line headed by its entry.
UniProt O95279: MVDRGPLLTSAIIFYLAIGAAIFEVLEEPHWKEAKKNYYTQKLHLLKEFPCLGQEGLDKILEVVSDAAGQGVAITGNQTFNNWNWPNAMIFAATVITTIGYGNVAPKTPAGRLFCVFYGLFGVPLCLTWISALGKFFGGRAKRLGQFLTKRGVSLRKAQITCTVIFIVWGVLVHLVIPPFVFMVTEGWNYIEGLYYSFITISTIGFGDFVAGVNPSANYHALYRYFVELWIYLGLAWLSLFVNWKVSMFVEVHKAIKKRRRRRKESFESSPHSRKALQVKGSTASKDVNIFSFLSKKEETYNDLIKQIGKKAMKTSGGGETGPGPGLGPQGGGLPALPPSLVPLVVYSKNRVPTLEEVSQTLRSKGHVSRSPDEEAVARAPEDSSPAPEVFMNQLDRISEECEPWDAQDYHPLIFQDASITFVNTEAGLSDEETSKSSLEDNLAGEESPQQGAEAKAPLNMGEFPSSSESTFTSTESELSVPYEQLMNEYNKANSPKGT
UniProt Q5JYT7: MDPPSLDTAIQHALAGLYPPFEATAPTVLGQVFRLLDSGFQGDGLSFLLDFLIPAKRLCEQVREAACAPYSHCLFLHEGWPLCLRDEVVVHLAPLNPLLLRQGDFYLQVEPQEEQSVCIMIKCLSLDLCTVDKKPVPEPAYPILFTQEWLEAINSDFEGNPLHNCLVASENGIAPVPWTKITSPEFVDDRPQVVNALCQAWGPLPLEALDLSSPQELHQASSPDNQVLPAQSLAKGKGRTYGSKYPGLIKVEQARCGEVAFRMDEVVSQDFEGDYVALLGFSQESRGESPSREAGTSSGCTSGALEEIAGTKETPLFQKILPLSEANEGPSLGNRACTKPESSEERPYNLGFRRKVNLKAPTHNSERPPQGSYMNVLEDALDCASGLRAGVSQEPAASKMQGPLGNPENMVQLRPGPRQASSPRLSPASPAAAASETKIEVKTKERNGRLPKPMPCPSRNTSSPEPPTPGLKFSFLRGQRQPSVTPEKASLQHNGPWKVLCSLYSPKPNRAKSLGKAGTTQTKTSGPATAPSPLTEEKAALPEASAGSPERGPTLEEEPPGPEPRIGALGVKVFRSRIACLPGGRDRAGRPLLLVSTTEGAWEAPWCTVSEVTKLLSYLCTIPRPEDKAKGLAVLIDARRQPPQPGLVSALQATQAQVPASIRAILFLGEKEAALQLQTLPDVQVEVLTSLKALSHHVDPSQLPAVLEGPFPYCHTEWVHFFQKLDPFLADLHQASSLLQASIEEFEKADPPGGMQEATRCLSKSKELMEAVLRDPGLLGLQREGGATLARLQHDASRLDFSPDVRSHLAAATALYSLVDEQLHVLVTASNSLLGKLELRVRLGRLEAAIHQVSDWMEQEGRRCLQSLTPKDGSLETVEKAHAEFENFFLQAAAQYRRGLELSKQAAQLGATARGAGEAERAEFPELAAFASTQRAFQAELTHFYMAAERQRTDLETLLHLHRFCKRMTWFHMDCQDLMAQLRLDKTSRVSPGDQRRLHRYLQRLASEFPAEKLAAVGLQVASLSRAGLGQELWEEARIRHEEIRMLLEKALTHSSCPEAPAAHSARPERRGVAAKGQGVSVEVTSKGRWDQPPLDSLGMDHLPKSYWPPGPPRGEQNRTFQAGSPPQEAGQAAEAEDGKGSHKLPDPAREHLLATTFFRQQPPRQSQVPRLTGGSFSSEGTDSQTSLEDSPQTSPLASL
UniProt P01591, whole entry, looked up: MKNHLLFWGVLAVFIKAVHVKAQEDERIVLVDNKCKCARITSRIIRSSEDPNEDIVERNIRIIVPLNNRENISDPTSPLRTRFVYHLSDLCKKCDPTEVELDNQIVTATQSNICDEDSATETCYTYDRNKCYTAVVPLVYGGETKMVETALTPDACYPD
UniProt Q9BVG8: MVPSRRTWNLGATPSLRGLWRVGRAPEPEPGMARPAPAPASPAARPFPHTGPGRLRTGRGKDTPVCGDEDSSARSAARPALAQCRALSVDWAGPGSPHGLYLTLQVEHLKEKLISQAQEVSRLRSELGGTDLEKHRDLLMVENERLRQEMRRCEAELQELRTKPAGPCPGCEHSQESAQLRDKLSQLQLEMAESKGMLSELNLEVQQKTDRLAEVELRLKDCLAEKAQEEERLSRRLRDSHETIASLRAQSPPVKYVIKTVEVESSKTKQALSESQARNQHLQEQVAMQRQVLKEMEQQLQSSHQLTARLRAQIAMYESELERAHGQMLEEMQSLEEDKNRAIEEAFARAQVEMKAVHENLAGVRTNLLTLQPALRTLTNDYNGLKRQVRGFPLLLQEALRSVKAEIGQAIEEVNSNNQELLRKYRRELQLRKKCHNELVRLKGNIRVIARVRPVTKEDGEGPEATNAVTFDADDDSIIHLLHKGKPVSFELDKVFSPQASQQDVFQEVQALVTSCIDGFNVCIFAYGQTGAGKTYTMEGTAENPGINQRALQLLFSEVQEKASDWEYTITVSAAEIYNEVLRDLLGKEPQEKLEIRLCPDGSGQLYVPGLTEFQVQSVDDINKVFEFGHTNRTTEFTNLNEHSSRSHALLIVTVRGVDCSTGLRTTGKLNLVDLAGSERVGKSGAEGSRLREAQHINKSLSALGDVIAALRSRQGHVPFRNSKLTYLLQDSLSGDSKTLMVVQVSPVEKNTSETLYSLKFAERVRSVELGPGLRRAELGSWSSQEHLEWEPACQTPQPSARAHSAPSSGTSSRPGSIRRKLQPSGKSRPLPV
UniProt Q8IXQ5, whole entry, looked up: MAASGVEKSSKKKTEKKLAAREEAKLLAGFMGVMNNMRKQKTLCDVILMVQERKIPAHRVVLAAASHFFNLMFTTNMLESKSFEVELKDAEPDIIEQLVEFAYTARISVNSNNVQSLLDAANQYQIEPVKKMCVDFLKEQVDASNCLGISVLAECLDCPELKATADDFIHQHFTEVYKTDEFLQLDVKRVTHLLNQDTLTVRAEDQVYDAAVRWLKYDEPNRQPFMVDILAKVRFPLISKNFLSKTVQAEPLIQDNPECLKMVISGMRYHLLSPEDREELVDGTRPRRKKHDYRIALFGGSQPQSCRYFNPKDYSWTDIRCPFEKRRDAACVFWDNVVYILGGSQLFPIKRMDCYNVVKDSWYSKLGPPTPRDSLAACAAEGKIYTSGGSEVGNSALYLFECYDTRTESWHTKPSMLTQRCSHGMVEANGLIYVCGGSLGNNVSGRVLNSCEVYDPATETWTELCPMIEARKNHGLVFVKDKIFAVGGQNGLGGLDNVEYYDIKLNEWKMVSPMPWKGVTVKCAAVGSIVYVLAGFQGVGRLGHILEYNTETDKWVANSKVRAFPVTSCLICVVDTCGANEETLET
UniProt Q8NB78: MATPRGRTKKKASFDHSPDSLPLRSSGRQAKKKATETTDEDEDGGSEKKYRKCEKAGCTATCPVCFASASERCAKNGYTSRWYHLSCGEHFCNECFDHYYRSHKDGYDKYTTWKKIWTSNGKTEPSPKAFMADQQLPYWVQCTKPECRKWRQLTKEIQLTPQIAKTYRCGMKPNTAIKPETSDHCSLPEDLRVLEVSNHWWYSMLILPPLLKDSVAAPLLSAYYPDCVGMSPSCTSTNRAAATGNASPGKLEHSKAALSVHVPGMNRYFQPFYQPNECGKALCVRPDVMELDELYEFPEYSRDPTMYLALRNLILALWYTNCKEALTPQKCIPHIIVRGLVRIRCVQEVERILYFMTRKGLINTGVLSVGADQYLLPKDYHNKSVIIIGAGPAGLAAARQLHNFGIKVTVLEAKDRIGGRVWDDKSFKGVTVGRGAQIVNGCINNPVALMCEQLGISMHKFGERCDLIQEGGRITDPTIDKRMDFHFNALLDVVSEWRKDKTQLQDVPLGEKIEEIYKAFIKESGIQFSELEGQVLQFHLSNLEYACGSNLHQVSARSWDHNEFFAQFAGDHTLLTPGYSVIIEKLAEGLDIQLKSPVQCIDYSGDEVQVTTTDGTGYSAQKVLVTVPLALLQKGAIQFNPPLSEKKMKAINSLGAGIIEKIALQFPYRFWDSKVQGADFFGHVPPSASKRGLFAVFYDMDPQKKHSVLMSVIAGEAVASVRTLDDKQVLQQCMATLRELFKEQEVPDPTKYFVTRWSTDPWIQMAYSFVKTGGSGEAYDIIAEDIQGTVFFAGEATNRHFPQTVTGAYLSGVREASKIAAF
UniProt O60333: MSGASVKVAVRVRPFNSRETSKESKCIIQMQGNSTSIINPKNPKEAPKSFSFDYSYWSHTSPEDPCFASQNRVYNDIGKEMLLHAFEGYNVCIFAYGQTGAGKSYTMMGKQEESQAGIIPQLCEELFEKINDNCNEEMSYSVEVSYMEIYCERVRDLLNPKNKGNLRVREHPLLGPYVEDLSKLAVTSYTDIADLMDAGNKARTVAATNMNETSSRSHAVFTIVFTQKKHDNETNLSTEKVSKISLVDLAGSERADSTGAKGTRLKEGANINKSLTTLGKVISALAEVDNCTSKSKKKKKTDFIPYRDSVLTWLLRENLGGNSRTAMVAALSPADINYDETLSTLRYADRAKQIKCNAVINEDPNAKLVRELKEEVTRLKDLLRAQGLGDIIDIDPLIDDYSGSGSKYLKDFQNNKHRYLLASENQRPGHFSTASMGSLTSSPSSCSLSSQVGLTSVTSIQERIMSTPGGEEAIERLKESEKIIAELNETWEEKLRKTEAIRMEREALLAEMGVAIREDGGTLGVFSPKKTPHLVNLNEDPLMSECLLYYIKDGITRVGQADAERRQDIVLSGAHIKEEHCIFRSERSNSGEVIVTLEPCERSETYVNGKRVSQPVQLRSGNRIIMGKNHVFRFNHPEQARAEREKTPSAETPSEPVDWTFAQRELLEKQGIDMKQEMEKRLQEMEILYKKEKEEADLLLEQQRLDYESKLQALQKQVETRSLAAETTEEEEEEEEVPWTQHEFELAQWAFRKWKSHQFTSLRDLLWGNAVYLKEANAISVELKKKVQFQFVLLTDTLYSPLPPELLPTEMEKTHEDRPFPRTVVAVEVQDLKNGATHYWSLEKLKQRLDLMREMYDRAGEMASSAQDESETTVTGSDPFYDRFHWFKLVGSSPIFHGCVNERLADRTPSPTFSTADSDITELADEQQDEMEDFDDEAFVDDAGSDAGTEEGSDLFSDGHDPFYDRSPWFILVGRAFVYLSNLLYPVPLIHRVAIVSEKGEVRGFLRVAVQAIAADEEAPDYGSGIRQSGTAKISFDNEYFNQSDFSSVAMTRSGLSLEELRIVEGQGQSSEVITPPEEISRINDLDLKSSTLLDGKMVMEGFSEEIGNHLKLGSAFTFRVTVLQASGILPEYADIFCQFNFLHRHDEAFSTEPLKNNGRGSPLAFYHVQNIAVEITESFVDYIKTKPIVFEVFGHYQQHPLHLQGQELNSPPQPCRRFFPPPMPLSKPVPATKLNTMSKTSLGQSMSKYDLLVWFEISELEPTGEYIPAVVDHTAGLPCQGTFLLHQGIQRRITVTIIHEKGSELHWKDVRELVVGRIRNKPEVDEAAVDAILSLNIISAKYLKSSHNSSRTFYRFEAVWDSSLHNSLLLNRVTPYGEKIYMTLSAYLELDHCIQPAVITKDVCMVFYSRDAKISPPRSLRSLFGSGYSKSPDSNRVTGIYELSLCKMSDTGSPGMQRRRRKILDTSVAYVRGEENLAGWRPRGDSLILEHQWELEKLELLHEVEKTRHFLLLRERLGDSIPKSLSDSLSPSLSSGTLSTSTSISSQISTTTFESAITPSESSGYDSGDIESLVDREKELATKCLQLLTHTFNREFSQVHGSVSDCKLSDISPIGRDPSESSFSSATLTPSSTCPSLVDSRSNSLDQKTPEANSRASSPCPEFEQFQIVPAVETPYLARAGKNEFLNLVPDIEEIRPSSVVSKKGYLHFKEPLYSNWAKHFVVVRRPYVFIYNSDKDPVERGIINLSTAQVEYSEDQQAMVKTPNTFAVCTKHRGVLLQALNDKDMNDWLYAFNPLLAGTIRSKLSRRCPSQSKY
UniProt P05412, whole entry, looked up: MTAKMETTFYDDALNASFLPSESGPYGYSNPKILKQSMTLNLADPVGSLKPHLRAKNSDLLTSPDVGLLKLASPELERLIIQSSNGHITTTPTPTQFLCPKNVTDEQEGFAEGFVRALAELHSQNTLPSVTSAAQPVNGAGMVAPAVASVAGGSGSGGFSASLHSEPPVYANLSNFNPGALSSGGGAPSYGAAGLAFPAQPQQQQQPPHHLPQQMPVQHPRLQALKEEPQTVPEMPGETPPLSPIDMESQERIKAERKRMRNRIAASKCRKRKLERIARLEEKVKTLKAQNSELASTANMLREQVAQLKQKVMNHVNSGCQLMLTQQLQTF
UniProt Q96S16: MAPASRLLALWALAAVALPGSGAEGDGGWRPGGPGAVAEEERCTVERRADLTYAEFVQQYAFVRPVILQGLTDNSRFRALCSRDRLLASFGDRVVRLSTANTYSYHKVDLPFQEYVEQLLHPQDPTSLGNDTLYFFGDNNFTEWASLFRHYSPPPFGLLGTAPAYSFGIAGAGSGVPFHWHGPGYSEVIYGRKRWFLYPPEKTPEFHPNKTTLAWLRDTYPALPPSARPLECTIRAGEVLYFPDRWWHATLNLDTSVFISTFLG

Assays:
Test in all cases: log2 fold change, soluble protein after heating vs DMSO (PISA); higher = thermal stabilisation; K562 cells, 10 uM, 30 min; active = over 0.2 and 3.5 SD of the protein, either way, in both replicates (recomputed)
[1] = compound: CC[C@@H]1C(=O)N(C)c2cnc(Nc3ccc(C(=O)NC4CCN(C)CC4)cc3OC)nc2N1C1CCCC1
In short: (§1)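 Soluble protein was defined as the supernatant after 21,000xg for 90 min. It came from K562 cells at 2×10^6 cells/mL given 10 μM compound for 30 min, heated in aliquots for 3 min across 48°C-58°C, pooled, and extracted in PBS with 0.5% NP-40 at 4°C, and was quantified by TMTpro 16plex LC-MS/MS with equalised channel sums. Thermal stability against control samples, from duplicates, is reported as log2 fold change.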

volasertib = compound: CC[C@@H]1C(=O)N(C)c2cnc(Nc3ccc(C(=O)N[C@H]4CC[C@H](N5CCN(CC6CC6)CC5)CC4)cc3OC)nc2N1C(C)C [volasertib]
In short: as §1

[2] = compound: CC[C@H](C)N1C=C(C2=C(C=C(C=C21)C3=CN=C(C=C3)N4CCNCC4)C(=O)NCC5=C(C=C(NC5=O)C)C)C
In short: as §1

[3] = compound: CCn1c(C(=O)N(C2CC2)C2CC2)cc2c3c(ncn3C)c(Nc3cc(C)n(C)n3)nc21
In short: as §1

rosiglitazone = compound: CN(CCOC1=CC=C(C=C1)C[C@H]2C(=O)NC(=O)S2)C3=CC=CC=N3 (racemic) [rosiglitazone]
In short: as §1

epoxomicin = compound: CC[C@H](C)[C@@H](C(=O)N[C@@H]([C@@H](C)O)C(=O)N[C@@H](CC(C)C)C(=O)[C@]1(CO1)C)NC(=O)[C@H]([C@@H](C)CC)N(C)C(=O)C [epoxomicin]
In short: as §1

[4] = compound: CCn1cc(-c2ccnc3[nH]c(-c4cccc(CN(C)C)c4)cc23)c(-c2ccc(NC(=O)N(C)C)cc2)n1
In short: as §1

[5] = compound: CN1C2=C(C3=C1C(=O)N(N=C3)CC4=CC(=CC=C4)N)SC(=C2)S(=O)C
In short: as §1

[6] = compound: CN1CCC(CNc2ccc3ncc(-c4cccc(OC(F)(F)F)c4)n3n2)CC1
In short: as §1

[7] = compound: CN(C)CC(=O)Nc1ccc2[nH]c(=O)c3ccccc3c2c1
In short: as §1

Measured: log2 fold change

KIF26A (UniProt Q9ULI4)
inactive: [1] 0.101 | volasertib 0.074 | [2] 0.001 | [3] 0.064 | rosiglitazone -0.036

KCNK5 (UniProt O95279)
inactive: [1] -0.042 | volasertib -0.174 | epoxomicin 0.046 | [4] 0.047 | [5] 0.223 | [6] -0.073

KCNN4 (UniProt O15554)
inactive: [1] -0.047 | volasertib -0.209 | [2] 0.138 | [3] -0.033 | [7] -0.106 | rosiglitazone 0.152 | [5] 0.119

KRAS isoform 2 (UniProt P01116)
inactive: [1] 0.08 | volasertib 0.026 | [2] -0.047 | epoxomicin 0.027 | [4] -0.073 | [7] 0 | [5] 0.062 | [6] 0.141

KIF13B (UniProt Q9NQT8)
inactive: [1] 0.099 | volasertib -0.246 | epoxomicin 0.045 | [3] 0.019 | [4] 0.04 | rosiglitazone 0.058 | [5] -0.001 | [6] 0.008

KIAA1755 (UniProt Q5JYT7)
inactive: [1] 0.055 | volasertib -0.027 | epoxomicin -0.179 | [3] 0.032 | [7] -0.129 | rosiglitazone 0.11 | [5] 0.043

KCT2 (UniProt Q8NC54)
inactive: [1] -0.312 | volasertib -0.076 | [2] -0.006 | epoxomicin -0.063 | [4] -0.03 | [7] 0.064 | [5] -0.051 | [6] -0.037

KIF13A (UniProt Q9H1H9)
inactive: [1] 0.007 | volasertib -0.041 | [2] -0.003 | epoxomicin 0.004 | [4] -0.068 | [7] -0.026 | [5] -0.012 | [6] 0.039

JCHAIN (UniProt P01591)
inactive: [1] 0.125 | [2] 1.51 | rosiglitazone 0.02

KIFC3 isoform 6 (UniProt Q9BVG8)
inactive: [1] 0.198 | [2] -0.225 | epoxomicin -0.165 | [3] -0.123 | [4] -0.136 | [7] -0.044 | rosiglitazone 0.238 | [6] -0.37

JUNB (UniProt P17275)
inactive: [1] 0.255 | [2] 0.04 | epoxomicin -0.07 | [3] 0.089 | [4] 0.005 | [7] -0.108 | rosiglitazone 0.002 | [6] 0.055

KLHL7 isoform 3 (UniProt Q8IXQ5)
inactive: volasertib 0.088 | [2] -0.213 | epoxomicin 0.1 | rosiglitazone 0.004 | [5] -0.361

KRIT1 (UniProt O00522)
inactive: volasertib -0.201 | [2] -0.345 | epoxomicin 0.01 | [3] -0.026 | [4] -0.01 | [7] 0.151 | rosiglitazone -0.269 | [5] -0.12 | [6] -0.08

KDM1B (UniProt Q8NB78)
inactive: [1] -0.158 | [2] 0.036 | [3] 0.176 | rosiglitazone 0.051 | [5] 0.24

KIF1B isoform 3 (UniProt O60333)
inactive: [1] 0.193 | [7] -0.032

KLHL7 (UniProt Q8IXQ5)
inactive: volasertib -0.007 | [2] -0.023 | epoxomicin 0.02 | [3] 0.06 | [7] -0.445 | rosiglitazone -0.035 | [5] 0.02

JUN (UniProt P05412)
inactive: [1] -0.007 | [2] -0.002 | [3] 0.096 | rosiglitazone -0.187

KDM3A (UniProt Q9Y4C1)
inactive: [1] 0.149 | [3] -0.17 | [4] -0.058 | [6] -0.078

KIF4A (UniProt O95239)
inactive: [1] -0.116 | [4] -0.058 | [7] 0.215 | [5] -0.396 | [6] 0.043

KLF3 (UniProt P57682)
inactive: volasertib 0.1 | [2] 0.038 | epoxomicin 0.049 | [3] 0.036 | [4] -0.029 | [7] -0.148 | rosiglitazone -0.095 | [5] 0.086 | [6] -0.082

ITSN2 (UniProt Q9NZM3)
inactive: [1] -0.316 | [3] -0.264 | [4] 0.389 | [6] 0.084

KLHL20 (UniProt Q9Y2M5)
inactive: volasertib -0.055 | [2] -0.117 | [3] 0.115 | [4] 0.032 | [7] 0.113 | [5] 0.03 | [6] -0.172

JAG2 (UniProt Q9Y219)
inactive: volasertib -0.028 | [2] 0.028 | epoxomicin -0.067 | [3] -0.094 | [7] 0.092 | rosiglitazone -0.113 | [5] -0.079

2 consecutive records already listed:
KIF4A (UniProt O95239)
inactive: [1] -0.116 | [4] -0.058 | [7] 0.215 | [5] -0.396 | [6] 0.043

KLF3 (UniProt P57682)
inactive: volasertib 0.1 | [2] 0.038 | epoxomicin 0.049 | [3] 0.036 | [4] -0.029 | [7] -0.148 | rosiglitazone -0.095 | [5] 0.086 | [6] -0.082

Continued.

KALRN (UniProt O60229)
inactive: [1] -0.269 | [2] -0.196 | epoxomicin -0.06 | [3] 0.223 | rosiglitazone -0.005

JMJD8 (UniProt Q96S16)
inactive: volasertib 0.074 | [2] -0.094 | [7] 0.072 | [5] -0.054

KCTD7 (UniProt Q96MP8)
inactive: volasertib -0.004 | [2] 0.099 | [4] 0 | rosiglitazone -0.032 | [5] 0.019 | [6] 0.112

KNL1 (UniProt Q8NG31)
inactive: [1] 0.012 | epoxomicin 0.173 | [3] -0.181 | [4] -0.17 | [5] 0.043 | [6] -0.145

KBTBD4 isoform 2 (UniProt Q9NVX7)
inactive: [1] 0.155 | [2] -0.013 | epoxomicin -0.001 | [3] -0.067 | [7] -0.093 | rosiglitazone 0.057 | [5] -0.013

KIFAP3 (UniProt Q92845)
inactive: [1] 0.137 | [2] 0.03 | epoxomicin 0.032 | rosiglitazone 0.114

KIF15 (UniProt Q9NS87)
inactive: [1] 0.147 | epoxomicin -0.204 | [3] -0.001 | [4] 0.036 | [7] -0.046 | rosiglitazone -0.181 | [5] 0.371 | [6] 0.178

JAK3 (UniProt P52333)
inactive: volasertib -0.075 | [2] 0.09 | epoxomicin -0.033 | [4] 0.128 | [7] -0.042 | [5] -0.01 | [6] 0.012
